Consider 2 substances from PMC3335792.

Sequences of proteins named here, by UniProt entry; tags and fusion partners are left off.
UniProt P0A988: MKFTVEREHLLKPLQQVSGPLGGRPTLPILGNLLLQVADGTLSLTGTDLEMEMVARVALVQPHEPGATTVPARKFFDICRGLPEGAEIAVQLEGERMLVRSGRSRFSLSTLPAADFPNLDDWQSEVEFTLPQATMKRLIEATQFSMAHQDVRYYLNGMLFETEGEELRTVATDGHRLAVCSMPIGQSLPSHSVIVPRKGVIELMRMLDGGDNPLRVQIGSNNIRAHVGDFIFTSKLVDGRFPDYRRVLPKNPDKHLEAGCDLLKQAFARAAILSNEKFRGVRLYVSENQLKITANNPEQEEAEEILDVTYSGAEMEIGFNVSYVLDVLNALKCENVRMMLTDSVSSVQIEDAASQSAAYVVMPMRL
UniProt P15042: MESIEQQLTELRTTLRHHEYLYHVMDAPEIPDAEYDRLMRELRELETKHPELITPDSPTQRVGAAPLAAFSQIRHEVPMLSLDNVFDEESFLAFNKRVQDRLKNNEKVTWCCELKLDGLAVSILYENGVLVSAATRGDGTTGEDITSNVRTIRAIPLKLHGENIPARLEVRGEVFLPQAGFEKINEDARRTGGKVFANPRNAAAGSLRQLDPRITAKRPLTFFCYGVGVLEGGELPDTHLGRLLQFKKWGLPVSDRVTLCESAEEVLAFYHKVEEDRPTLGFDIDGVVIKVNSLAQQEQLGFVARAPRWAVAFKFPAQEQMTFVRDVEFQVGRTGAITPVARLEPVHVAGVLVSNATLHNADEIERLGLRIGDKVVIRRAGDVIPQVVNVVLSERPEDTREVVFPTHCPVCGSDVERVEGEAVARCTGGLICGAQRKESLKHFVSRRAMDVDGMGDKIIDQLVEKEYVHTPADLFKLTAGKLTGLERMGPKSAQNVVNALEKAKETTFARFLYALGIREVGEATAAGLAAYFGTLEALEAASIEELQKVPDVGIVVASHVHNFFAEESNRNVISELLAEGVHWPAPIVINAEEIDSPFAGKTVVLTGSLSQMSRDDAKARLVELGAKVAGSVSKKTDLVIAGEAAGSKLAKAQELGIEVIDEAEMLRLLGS

Results are given in words; binding and its absence hold for the method and conditions named.

Assay [1] concerns the target T1, Mtbβ-clamp labeled with OregonGreen488 maleimide (Mtbβ-clamp^OG) (M. tuberculosis) (UniProt P9WNU1).
T1 sequence (chain, OregonGreen488 maleimide label (residue not stated)): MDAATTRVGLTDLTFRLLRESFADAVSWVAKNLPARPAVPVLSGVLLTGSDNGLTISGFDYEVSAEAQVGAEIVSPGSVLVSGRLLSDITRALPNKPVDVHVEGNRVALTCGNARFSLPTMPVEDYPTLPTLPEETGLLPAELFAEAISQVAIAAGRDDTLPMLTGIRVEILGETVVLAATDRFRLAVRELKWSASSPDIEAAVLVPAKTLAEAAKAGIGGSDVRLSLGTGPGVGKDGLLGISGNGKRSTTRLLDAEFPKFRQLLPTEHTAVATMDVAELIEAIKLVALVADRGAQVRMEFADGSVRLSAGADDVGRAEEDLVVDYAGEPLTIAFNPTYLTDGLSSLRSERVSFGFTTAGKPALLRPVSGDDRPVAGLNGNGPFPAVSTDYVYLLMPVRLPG
Briefly: other fluorescence titration; OregonGreen488-labeled β-clamp (50 or 100 nM in the methods, 90 nM in the legend) titrated with the partner protein; 20 mM Tris-Cl pH 7.5, 8 mM MgCl2, 1 mM DTT, 0.2 mM EDTA, 50 mM NaCl, 0.5 mM ATP, 22°C; emission at 510 nm; apparent Kd; both purified.

Assay [2] deals with E. coli β-clamp labeled with OregonGreen488 (E. coli β-clamp^OG) (E. coli) (UniProt P0A988). Described as above.

For the substance “E. coli NAD+-dependent DNA ligase (E. coli LigA) (from UniProt P15042 1-671) (enzyme)”, the binding result in assay [1] is “no binding”.

Take “M. tuberculosis NAD+-dependent DNA ligase (MtbLigA, Rv3014c) (from UniProt P9WNV1 1-691) (enzyme)”: the binding entry in assay [2] and in assay [1] was “no binding” each time.
